Results: the supplement of paper PMC12889115
The list shows a part of the results. These are raw signals, not scaled to a control.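 First-pass screen: polymyxin B was added at a level that permeabilizes the Salmonella outer membrane while sparing the inner membrane. DMSO wells, with and without polymyxin B, defined maximum growth. Because plates differed from one another, each plate's data were ranked separately and the compounds with the lowest OD600 were carried forward as hits.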

Test system: Salmonella enterica serovar Typhimurium SL1344
Assay: bacterial growth OD600 after 18 h with compound and polymyxin B; higher = more bacterial growth (less inhibition)
Conditions: 50 µM, Mueller-Hinton broth

SMILES: COc1cccc(CN(C)Cc2c(C(=O)N3CCCCCC3)nc3cc(C)ccn23)c1
- bacterial growth OD600 (polymyxin B 0.75 µg/mL): 0.003

SMILES: CC(c1ccccn1)N(C)C(=O)c1cc(COc2cccc3cnccc23)on1 (stereo unspecified)
- bacterial growth OD600 (polymyxin B 1 µg/mL): 1.01

SMILES: O=C(NC(C1CC1)C1CC1)C1CCC(=O)N(CCCN2CCCC2=O)C1 (stereo unspecified)
- bacterial growth OD600 (polymyxin B 1 µg/mL): 0.998

SMILES: COC(=O)CC(NC1CCN(c2ccc(NC(=O)c3ccc(OC)cc3)cc2)CC1)C(=O)OC (stereo unspecified)
- bacterial growth OD600 (polymyxin B 0.75 µg/mL): 0.855

SMILES: CN(Cc1ccccc1)C1CCCN(C(=O)CCC(=O)c2ccc(F)cc2)C1 (stereo unspecified)
- bacterial growth OD600 (polymyxin B 0.75 µg/mL): 0.827

SMILES: c1cnn(CCCNc2nc3nonc3nc2N2CCCCCC2)c1
- bacterial growth OD600 (polymyxin B 1 µg/mL): 0.894

SMILES: COCC(=O)Nc1cc(C(=O)N(C)Cc2nonc2C)c2c(c1)ncn2Cc1ccc(F)cc1
- bacterial growth OD600 (polymyxin B 0.75 µg/mL): 0.844

SMILES: O=C(NC1CCS(=O)(=O)C1)c1ccc2oc(CCCc3ccccc3)nc2c1 (stereo unspecified)
- bacterial growth OD600 (polymyxin B 1 µg/mL): 0.942

SMILES: Cc1cnc(N2CCC(C3CCN(CC(C)(C)C)C3)CC2)nc1N (stereo unspecified)
- bacterial growth OD600 (polymyxin B 0.75 µg/mL): 0.777

SMILES: O=C1N(Cc2cccc(F)c2F)CCCC1(O)CN1CCN(CC2CC2)CC1 (stereo unspecified)
- bacterial growth OD600 (polymyxin B 1 µg/mL): 0.913

SMILES: Cc1c(C(C)NCc2cc3c(cc2Cl)OCO3)cnn1-c1ccccc1 (stereo unspecified)
- bacterial growth OD600 (polymyxin B 1 µg/mL): 0.992

SMILES: CCN1CCN(CC(=O)NCc2ccc3[nH]c4c(c3c2)CCCC4)CC1
- bacterial growth OD600 (polymyxin B 1 µg/mL): 0.987

SMILES: Cc1nn(C)cc1[C@@H]1C[C@H]2CN(Cc3cccc(Cl)c3)C(=O)[C@]23CCCN13
- bacterial growth OD600 (polymyxin B 1 µg/mL): 0.906

SMILES: COCCC(=O)N1CCC(Oc2ccc(C(=O)N3CCCCC3CCCO)cc2)CC1 (stereo unspecified)
- bacterial growth OD600 (polymyxin B 1 µg/mL): 0.998

SMILES: COc1cccc(CN2CCCC(O)(CN3CCSCC3)C2=O)c1 (stereo unspecified)
- bacterial growth OD600 (polymyxin B 1 µg/mL): 0.823

SMILES: O=C(C1CC1)N1CCC(N2CCCC(C(=O)N3CCc4ccccc4C3)C2)CC1 (stereo unspecified)
- bacterial growth OD600 (polymyxin B 0.75 µg/mL): 0.786

SMILES: CCN1CC(CN(C)Cc2cn(-c3ccccc3)nc2-c2ccc(OC)cc2F)CC1=O (stereo unspecified)
- bacterial growth OD600 (polymyxin B 1 µg/mL): 0.762

SMILES: Cc1ccc(CC2(CCC(=O)N3CCC(OCc4ccccc4)CC3)CCC(=O)N2)cc1 (stereo unspecified)
- bacterial growth OD600 (polymyxin B 0.75 µg/mL): 0.823

SMILES: Cc1c(CC(=O)NC2CCC2)c2c(n1CCc1ccccc1)CCCC2=O
- bacterial growth OD600 (polymyxin B 1 µg/mL): 0.57

SMILES: Cc1n[nH]c(C)c1CN(C)c1nc2nonc2nc1N(C)C
- bacterial growth OD600 (polymyxin B 0.75 µg/mL): 0.792

SMILES: NC(=O)N1CCCC(C(=O)NCc2cccnc2Oc2ccccc2)C1 (stereo unspecified)
- bacterial growth OD600 (polymyxin B 0.75 µg/mL): 0.979

SMILES: O=C(NCC1(O)CCCCC1)c1ccc2nc(Cc3ccccc3F)oc2c1
- bacterial growth OD600 (polymyxin B 0.75 µg/mL): 0.763

SMILES: O=C(NCc1cnc2ccccn12)C1CCC(=O)N(CCc2cccc(F)c2)C1 (stereo unspecified)
- bacterial growth OD600 (polymyxin B 1 µg/mL): 0.942

SMILES: CCOc1ccc(CN2CCC(O)(Cc3cc(-c4ccccc4)no3)CC2)cc1
- bacterial growth OD600 (polymyxin B 1 µg/mL): 0.911

SMILES: COc1cc(=O)n2c(c1C(=O)N1CCc3ccccc3C1)CCN(Cc1ccc(F)c(F)c1)CC2
- bacterial growth OD600 (polymyxin B 0.75 µg/mL): 0.764

SMILES: COc1ccccc1-n1cc(CN2CCOc3ccc(CN4CCN(CCO)CC4)cc3C2)cn1
- bacterial growth OD600 (polymyxin B 0.75 µg/mL): 0.787

SMILES: COc1ccc(CC(=O)N2CCC(C3(C)NC(=O)N(Cc4ccsc4)C3=O)CC2)cc1OC (stereo unspecified)
- bacterial growth OD600 (polymyxin B 0.75 µg/mL): 0.842

SMILES: CN(C(=O)c1cc2ccccc2oc1=O)C1CCCN(CCCc2ccccc2)C1 (stereo unspecified)
- bacterial growth OD600 (polymyxin B 1 µg/mL): 1.2

SMILES: O=C(Nc1cccc(-c2cccc(Cl)c2)c1)C1CCN(C(=O)c2cnccn2)CC1
- bacterial growth OD600 (polymyxin B 1 µg/mL): 0.596

SMILES: Cc1nn(C)cc1CNC(=O)c1ccc(OC2CCN(S(=O)(=O)N(C)C)CC2)cc1
- bacterial growth OD600 (polymyxin B 1 µg/mL): 1.26

SMILES: O=C(CCC1CCCCC1)N1CCOc2ccc(CN3CCC(Oc4cccnc4)CC3)cc2C1
- bacterial growth OD600 (polymyxin B 0.75 µg/mL): 0.637
